Laboratory results: PubChem BioAssay AID652243 (Drosophila RNAi Screening Center, 2013)
Test: 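Fly genes required for human androgen receptor driven transcription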 (primary screen). Cell system: Drosophila S2R+ cells. Reagent: long dsRNA against Drosophila genes. Timing: 72 h (48 h, then 24 h hormone). Challenge: synthetic androgen R1881 at 10 nM for 24 h. Measurement: 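Firefly light from an androgen-responsive reporter and Renilla control light per well, raw and unnormalised, for each of two replicates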. Direction: firefly reporter light: higher = more light from androgen-responsive reporter; Renilla control light: higher = more constitutive control signal (cell number, transfection). Call rule: 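Hit when the log firefly-to-Renilla ratio dropped or increased by a fixed fold versus the mean of GFP or LacZ controls across duplicate plates; lowering cut given as 1.5 and as 3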. Calls: active = hit: reporter lowered or raised; inactive = no hit.
The deposit covers about 24,000 reagents; this is a random part of those that have a named target and a result. Over the whole deposit, 246 (1%) are marked active. 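Plates not normalised; calls are printed but the firefly/Renilla ratio behind them is not deposited; fold cut for lowering reported inconsistently.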 Raw values vary from plate to plate and are shown uncorrected. A number with no mark means an inactive call. The numbers tell different reagents against one gene apart. Names joined by + are all predicted targets of the reagent. The record does not give: the amount of reagent.

After knock-down of Marcal1, the screen gave firefly reporter light, replicate 1 = 1.04e5; firefly reporter light, replicate 2 = 75077; Renilla control light, replicate 1 = 1.21e6; Renilla control light, replicate 2 = 7.34e5.
After knock-down of Ufd4 (Ubiquitin fusion-degradation 4-like), the screen gave firefly reporter light, replicate 1 = 2.31e5; firefly reporter light, replicate 2 = 2.85e5; Renilla control light, replicate 1 = 1.05e6; Renilla control light, replicate 2 = 1.24e6.
With knock-down of obst-I (obstructor-I), the record shows firefly reporter light, replicate 1 = 1.32e6; firefly reporter light, replicate 2 = 1.24e6; Renilla control light, replicate 1 = 2.04e6; Renilla control light, replicate 2 = 1.91e6.
CG42446 + CG17931 gave firefly reporter light, replicate 1 = 2.15e5; firefly reporter light, replicate 2 = 2.90e5; Renilla control light, replicate 1 = 8.58e5; Renilla control light, replicate 2 = 9.19e5.
Depletion of Fili (Fish-lips) #1 came out at: firefly reporter light, replicate 1 = 1.07e5; firefly reporter light, replicate 2 = 1.13e5; Renilla control light, replicate 1 = 1.25e6; Renilla control light, replicate 2 = 1.08e6.
Fili (Fish-lips) #2 gave firefly reporter light, replicate 1 = 2.07e5; firefly reporter light, replicate 2 = 2.33e5; Renilla control light, replicate 1 = 1.44e6; Renilla control light, replicate 2 = 1.06e6.
Against Cyp12b2 (Cytochrome P450 12b2), the entry reads firefly reporter light, replicate 1 = 84938; firefly reporter light, replicate 2 = 91186; Renilla control light, replicate 1 = 1.10e6; Renilla control light, replicate 2 = 1.36e6.
After knock-down of opa (odd paired) #1, the screen gave firefly reporter light, replicate 1 = 14504; firefly reporter light, replicate 2 = 17410; Renilla control light, replicate 1 = 2.49e5; Renilla control light, replicate 2 = 2.75e5.
After knock-down of opa (odd paired) #2 the results were firefly reporter light, replicate 1 = 3.36e5; firefly reporter light, replicate 2 = 6.28e5; Renilla control light, replicate 1 = 9.89e5; Renilla control light, replicate 2 = 1.38e6.
After knock-down of opa (odd paired) #3 the results were firefly reporter light, replicate 1 = 4.89e5; firefly reporter light, replicate 2 = 3.27e5; Renilla control light, replicate 1 = 7.08e5; Renilla control light, replicate 2 = 4.90e5.
Against CG12446, the values are firefly reporter light, replicate 1 = 1.26e5; firefly reporter light, replicate 2 = 97804; Renilla control light, replicate 1 = 5.14e5; Renilla control light, replicate 2 = 3.66e5.
CG14960 showed firefly reporter light, replicate 1 = 60116; firefly reporter light, replicate 2 = 54990; Renilla control light, replicate 1 = 6.75e5; Renilla control light, replicate 2 = 5.63e5.

No new results follow: an excerpt of the list.
opa (odd paired) #1 | firefly reporter light, replicate 1: 14504; firefly reporter light, replicate 2: 17410; Renilla control light, replicate 1: 2.49e5; Renilla control light, replicate 2: 2.75e5
opa (odd paired) #2 | firefly reporter light, replicate 1: 3.36e5; firefly reporter light, replicate 2: 6.28e5; Renilla control light, replicate 1: 9.89e5; Renilla control light, replicate 2: 1.38e6
